The other results are listed elsewhere or left out. These are further read-outs of the screen, such as a control signal, another cell line or another target. No call is given for them. Compounds called inactive in the main read-out are mostly missing here. The note in brackets gives the kind of curve behind each potency; many fits are weak.

This passage reports AC50 results from PubChem BioAssay AID901 (National Center for Advancing Translational Sciences (NCATS), 2007).

This test is described as follows: qHTS Assay for Identifying the Cell-Membrane Permeable IMPase Inhibitors. To be noted: CHO-M1 cells, IP1 accumulation, HTRF TR-FRET ratio; measured here: donor channel 620 nm AC50.
Usually AC50 stands for the concentration at which the activity in the assay is half-maximal. As for `CCCOc1ccc2oc(=O)c3c(c2c1)CCCN3C(=O)CN1CCc2ccccc2C1`, the half-maximal activity concentration (AC50) is 6.31 µM [falling, full curve, poor fit].
`COc1ccc(-c2nc3scc(-c4ccc(OC)c(OC)c4)c3c(=O)o2)cc1`: the AC50 was 0.0316 µM [rising, full curve].
Consider `CCc1nc(SCC(=O)Nc2nc3c(s2)CCCC3)c2ccccc2n1`, for which the half-maximal activity concentration (AC50) was 10 µM [rising, single point].
Take `O=C(c1cc2c(s1)-c1ccccc1OC2)N1CCN(c2ccccc2)CC1`: the concentration at half-maximal activity (AC50) is 12.6 µM [rising, single point].
With `Cn1nnnc1SCC(=O)NC(C)(C)C`, the half-maximal activity concentration (AC50) is 1 µM [falling, partial curve, poor fit].
`CCOC(=O)c1c(CN2CCN(CCO)CC2)n(C)c2cc(Br)c(OC)cc12`: the half-maximal activity concentration (AC50) was 31.6 µM [falling, single point].
Then `c1cncc(-c2nc3ccccc3o2)c1`, with 15.8 µM [falling, single point]; and `Clc1ccc2noc(-c3ccccc3)c2c1`, with 31.6 µM [falling, single point]; and `Cc1ccc(Cl)cc1N1CCN(CCNC(=O)Nc2ccccc2Cl)CC1`, with 11.2 µM [rising, partial curve, poor fit].
For the compound `Cc1nonc1NC(=O)CSc1ccc(-c2ccccc2)nn1`, the AC50 is 3.16 µM [rising, full curve].
Then `O=C1/C(=C/c2ccc([N+](=O)[O-])cc2)C=C(c2ccccc2)N1c1ccccc1`, with 3.16 µM [rising, full curve, poor fit].
In the case of `O=c1oc2cc(OCc3ccc(F)cc3F)ccc2cc1-c1ccccn1`, the AC50 is 25.1 µM [rising, single point].
Consider `O=C(COc1ccc2ccccc2c1)NCCNC(=O)COc1ccc2ccccc2c1`, for which the AC50 was 31.6 µM [rising, single point].
Consider `Nc1nc(-c2ccccc2Br)cs1`, for which the AC50 was 0.0126 µM [falling, full curve].
For `COc1ccc(-c2nc(CNS(=O)(=O)c3ccc(OC)c(OC)c3)cs2)cc1`, the AC50 was 0.708 µM [falling, full curve, poor fit].
On to `Cc1cc(C)cc(C(=O)Nc2ccc(-c3nc4ncccc4o3)cc2)c1`, for which the AC50 was 10 µM [rising, partial curve, poor fit].
Then `Clc1ccccc1-c1cc(COc2ccc3ccccc3c2)no1`, with 0.398 µM [falling, full curve, poor fit]; and `Cc1ccc(NC(=O)c2cnn3c(C(F)F)cc(-c4ccccc4)nc23)c(C)c1`, with 11.2 µM [falling, partial curve, poor fit].
`CCc1ccc(N=C2NC(=O)CC(C(=O)Nc3ccc(OC)cc3)S2)cc1` (stereo unspecified): the half-maximal activity concentration (AC50) is 0.158 µM [falling, full curve, poor fit].
In the case of `CCN1CCCC1CNC(=O)CSc1cc(=O)n(C)c2cc(Cl)ccc12` (stereo unspecified), the AC50 is 10 µM [rising, partial curve].
Then `O=S(=O)(c1ccccc1)N1CCN(c2ncnc3sc(-c4ccccc4)cc23)CC1`, with 31.6 µM [rising, single point].
For `O=C(NCCN1CCc2ccccc2C1)Nc1ccc(F)cc1`, the AC50 was 35.5 µM [falling, partial curve, poor fit].
Consider `CCn1c(SCc2ccc(C(=O)Nc3cc(C)cc(C)c3)cc2)nnc1-c1ccncc1`, for which the half-maximal activity concentration (AC50) is 0.158 µM [falling, full curve, poor fit].
The figure for `Cc1c(NC(=O)C(C)Sc2nc3ccccc3c(=O)n2CCO)c(=O)n(-c2ccccc2)n1C` (stereo unspecified) is 31.6 µM [falling, single point]; for `CCOc1ccc(-c2nnn(CC(=O)NCc3ccc4c(c3)OCO4)n2)cc1` it is 0.0631 µM [rising, full curve]; for `COc1ccccc1CNC(=O)CCS(=O)(=O)c1ccc2c(c1)CCCN2C(C)=O` it is 5.01 µM [rising, partial curve, poor fit].
Consider `CCc1ccccc1NC(=O)CSc1nnc([C@@H]2CCCN2C(=O)OC(C)(C)C)o1`, for which the half-maximal activity concentration (AC50) was 0.0251 µM [rising, full curve, poor fit].
As for `CCc1sc(C(=O)Nc2ccc(F)cc2C)cc1C`, the concentration at half-maximal activity (AC50) is 12.6 µM [rising, partial curve].
On to `Cc1ccc(C(=O)Oc2ccc(C(=O)COC(=O)C3CC(=O)N(Cc4ccco4)C3)cc2)cc1` (stereo unspecified), for which the AC50 was 0.0794 µM [falling, partial curve].
In the case of `COC(=O)c1sc(NC(=O)C2c3ccccc3Oc3ccccc32)c(C(=O)OC)c1C`, the concentration at half-maximal activity (AC50) is 35.5 µM [rising, single point].
The figure for `Cc1ccc(C(=O)Nc2ccc(C(=O)O)cc2)cc1S(=O)(=O)Nc1ccccc1` is 6.31 µM [falling, single point]; for `CN1CCN(C(=O)c2c(NC(=O)c3ccco3)sc3c2CCC(C(C)(C)C)C3)CC1` (stereo unspecified) it is 0.0158 µM [rising, full curve, poor fit].
The figure for `CCCn1nc(C(=O)NCC(C)(C)N2CCOCC2)c2ccccc2c1=O` is 31.6 µM [rising, single point].
The figure for `C=CCn1c(SCC(=O)Nc2ccc3c(c2)OCCO3)nnc1-c1ccccn1` is 0.0631 µM [rising, full curve, poor fit].
Regarding `CC(=O)Nc1ccc(N2C(=O)CSC2c2ccc(F)cc2)cc1` (stereo unspecified), the concentration at half-maximal activity (AC50) was 35.5 µM [falling, single point].
With `COc1ccccc1NC(=O)c1ccc(NS(C)(=O)=O)cc1`, the concentration at half-maximal activity (AC50) is 31.6 µM [rising, single point].
`Nc1c(S(=O)(=O)O)cc(Nc2ccc(Nc3nc(Cl)nc(Nc4ccc(S(=O)(=O)O)cc4)n3)c(S(=O)(=O)O)c2)c2c1C(=O)c1ccccc1C2=O`: the AC50 is 12.6 µM [falling, partial curve].
Turning to `Nc1ccc(Nc2nc(-c3ccncc3)cs2)cc1`, the concentration at half-maximal activity (AC50) was 12.6 µM [falling, single point].
On to `COc1ccc(C(=O)NCCCCCC(=O)O)cc1OC`, for which the half-maximal activity concentration (AC50) was 31.6 µM [falling, single point].
For `O=C(NCC(c1cccnc1)N1CCOCC1)Nc1ccccc1` (stereo unspecified), the AC50 is 1.58 µM [falling, partial curve, poor fit].
Turning to `O=C(CSc1nnc(-c2ccncc2)n1CC1CCCO1)NCc1ccccc1` (stereo unspecified), the AC50 was 0.02 µM [falling, full curve, poor fit].
